Experimental data: paper PMC7977447

Chains of the proteins cited; added tags and fusions are not shown. Lines headed by an entry give the natural chain unless they say otherwise; changes in a name come on top.
UniProt Q8K4Z2: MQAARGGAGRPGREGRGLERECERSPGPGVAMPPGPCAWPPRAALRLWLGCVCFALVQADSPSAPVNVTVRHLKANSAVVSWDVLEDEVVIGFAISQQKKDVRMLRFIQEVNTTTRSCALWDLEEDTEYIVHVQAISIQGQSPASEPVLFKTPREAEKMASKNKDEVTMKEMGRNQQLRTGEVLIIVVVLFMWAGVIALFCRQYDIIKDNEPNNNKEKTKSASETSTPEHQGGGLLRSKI

Biological target: Flag-tagged wild-type Fndc5 (fibronectin type III domain containing 5) (UniProt Q8K4Z2)
Assay: co-IP; Flag-Fndc5 and myc-SIRT2 co-transfected into HepG2 cells; lysis in radioimmunoprecipitation assay buffer, protein A/G-agarose beads, immunoblotting

B1: Myc-tagged SIRT2 (enzyme, UniProt Q8IXJ6 1-389)
chain: MAEPDPSHPLETQAGKVQEAQDSDSDSEGGAAGGEADMDFLRNLFSQTLSLGSQKERLLDELTLEGVARYMQSERCRRVICLVGAGISTSAGIPDFRSPSTGLYDNLEKYHLPYPEAIFEISYFKKHPEPFFALAKELYPGQFKPTICHYFMRLLKDKGLLLRCYTQNIDTLERIAGLEQEDLVEAHGTFYTSHCVSASCRHEYPLSWMKEKIFSEVTPKCEDCQSLVKPDIVFFGESLPARFFSCMQSDFLKVDLLLVMGTSLQVQPFASLISKAPLSTPRLLINKEKAGQSDPFLGMIMGLGGGMDFDSKKAYRDVAWLGECDQGCLALAELLGWKKELEDLVRREHASIDAQSGAGVPNPSTSASPKKSPPPAKDEARTTEREKPQ
  binding: binds

These are yes or no findings as the source states them, for the method shown. In cells and extracts the contact can be indirect. Binding calls can cover weak binding; strength is not graded here. Where a sequence is shown, tags or fusion partners need not be part of it.
